Test results taken from the supplement of paper PMC3334620.
Whole data set: some 33,000 sequences, median “E-score (-0.5 to 0.5)” near -0.0014, cut for the highest 2% near 0.25. The list shows a part of the results.

These sequences were tested against T1, Cad1 (UniProt P24813) (assay: PBM E-score (8-mer binding enrichment) (E-score (-0.5 to 0.5)); higher = stronger / more preferred TF binding). Conditions: protein concentration: 100 nM; construct: GST-full length.
T1 sequence: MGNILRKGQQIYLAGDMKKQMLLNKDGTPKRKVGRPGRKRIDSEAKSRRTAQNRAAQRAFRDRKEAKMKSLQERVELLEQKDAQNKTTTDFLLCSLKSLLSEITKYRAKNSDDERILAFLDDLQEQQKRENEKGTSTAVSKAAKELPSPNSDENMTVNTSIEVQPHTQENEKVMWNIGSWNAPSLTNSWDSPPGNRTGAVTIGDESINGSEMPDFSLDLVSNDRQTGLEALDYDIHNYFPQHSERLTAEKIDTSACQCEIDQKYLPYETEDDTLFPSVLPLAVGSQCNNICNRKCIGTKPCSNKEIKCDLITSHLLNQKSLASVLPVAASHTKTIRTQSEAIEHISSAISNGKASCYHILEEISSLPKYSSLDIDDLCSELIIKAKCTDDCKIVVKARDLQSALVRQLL
Outline: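 Yeast transcription factors carrying a GST tag, as full-length proteins or DNA-binding domains, were produced by PURExpress in vitro transcription/translation. About 100-200 nM protein was applied to universal all-10-mer Agilent arrays, double-stranded by primer extension on fresh or once-stripped slides. Bound protein was detected with fluorescent anti-GST, and scans were normalised with masliner. The Universal PBM Analysis Suite gave each ungapped eight-base word, pooled with its reverse complement, an E-score, a modified Wilcoxon-Mann-Whitney statistic.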

Sequence | PBM E-score
ACGTAGAG | -0.0849
TAACTACA | 0.157
CAAAACAC | -0.0151
CACCCTCC | -0.168
CGATCCGA | 0.251
CTGCGCAA | 0.085
AGTGGAAG | -0.238
ATGAACTG | 0.231
CCCGACTC | -0.0769
CCAGTAGC | -0.0664
GATTGTTA | 0.0925
CCTCAGCG | -0.0995
AAACCTTC | -0.205
AACGAGCT | -0.0413
TAACGCCA | 0.0123
AGCTACTG | 0.174
TGATTACA | 0.275
CAACCTCC | -0.126
ATGCCTAG | -0.255
AAGATGAA | 0.0257
ACCCCTAT | 0.0561
AGTATCCA | 0.0823
ATCAAGAA | 0.223
CAGTGTGA | 0.113
CGATGTGC | -0.00621

An excerpt of these results, with tabs.
Sequence	PBM E-score
ACGTAGAG	-0.0849
CTGCGCAA	0.085
CCTCAGCG	-0.0995
ATCAAGAA	0.223

Remaining list, next part

Sequence | PBM E-score
GTCAACGA | 0.0496
CGACCTGC | -0.0229
ACCATGCG | -0.0289
GGGTCGCA | -0.0272
ATCGCCAA | -0.0182
CGCCTATC | -0.0721
GCTCTTGA | -0.0961
CATTGGTA | 0.0339
ATGTCCTC | 0.0753
CTCACACC | -0.0508
AGTCATGG | -0.079
ACTACCAG | -0.187
CGTGTGGC | 0.0386
TCTATCAA | 0.101
CCCTGCTA | -0.171
GCTATGCC | -0.123
AATAAAGT | 0.0961
AGAGAATG | 0.0962
ACTCCTCA | -0.225
AGGTCGTA | 0.0952
AGTACAGC | -0.0179
AAAACCGC | 0.033
AGTGCAGA | -0.0627
AACAAGTT | 0.00514
AAACTCCA | -0.0306

Sequence | PBM E-score
ATACAATC | 0.0426
ACGGGGCG | 0.199
CATGGCGC | 0.0115
CACGACGC | -0.131
CGCCCGCC | 0.0039
ACGACTAG | 0.073
AACGCATG | 0.0935
ATACATCG | 0.197
AGATTTGC | 0.182
ATCCATTA | 0.0411
CGCATCCG | -0.0538
AAGGTATA | -0.00636
ATCCGCGA | 0.0515
CACCCACC | -0.0145
CCCCAGAA | -0.154
ACCAATGG | -0.069
TAAGCGCA | 0.144
ACTTCCCT | -0.0618
CAGGCGTA | 0.19
TAAGTTGA | 0.00888
CCCAGAGC | -0.178
GGCATACA | -0.0281
ACAGTCAC | -0.0959
GGTTCACA | 0.164
GAGTGCCC | -0.055

Sequence | PBM E-score
AGAGCTCT | -0.28
AGCCCGAG | -0.154
CGGCCAGC | -0.205
GGCGATGA | -0.172
ACCAGCAC | -0.0475
CCAAGCCG | -0.0394
AATTGTCG | 0.0794
AAGGAGTA | -0.143
CCTCGAAA | 0.03
CGACGTGC | -0.048
ATCGTCTA | 0.0165
CGAACTTA | 0.0337
AGTCGACA | 0.22
CTTAACTC | 0.0365
TATGGCCA | 0.145
CCGCAGAA | 0.179
ATGACCCG | -0.112
GCATACGA | -0.0714
AAGCGTGC | 0.0124
TCTTTGCA | 0.0891
CATGTAGC | -0.0406
CGTTTTCC | 0.0584
CTCAACCC | 0.00668
GCCACCAC | -0.258
CACTTGCC | -0.114

Random excerpt: two entries already listed
Sequence | PBM E-score
AAGCGTGC | 0.0124
GATTGTTA | 0.0925

Additional results.

Sequence | PBM E-score
CATGACCC | -0.205
CTCAGGTC | 0.0134
CTGCCTAA | -0.14
GGAACAGA | -0.0833
ATTTATGG | 0.0916
ACTTGGCA | -0.103
CGTAGCAG | -0.105
GGACTTCA | -0.151
ACTACAAG | 0.0126
ACTTCGCG | 0.216
CGACGCAC | -0.011
GATGGACC | 0.00457
AGCCTATG | -0.125
GTTCTCAA | 0.138
CGCTTTCA | 0.144
GACATGAA | 0.0697
CGCGCACG | 0.0231
CGTCTGTC | -0.075
CTACAAGA | -0.173
AATACTCG | 0.114
AACTATAA | 0.105
TAAGCCTA | 0.151
CTTCTAAC | -0.2
CAGCTCCG | 0.0823
CTCTAACC | -0.275

Look-ups from the list.
Under PBM E-score, ATCGTCTA shows 0.0165
Under PBM E-score, GCTATGCC shows -0.123
Under PBM E-score, CCCTGCTA shows -0.171

Later entries

Sequence | PBM E-score
GCGACATA | 0.119
AGGGTACC | -0.257
ATGATCGA | -0.0582
ACGGATCC | -0.0362
GATATGCA | 0.111
CAATGTGC | 0.0851
AATTCACC | 0.0701
GATATCCC | 0.174
AAGATGGC | -0.131
GACGTTAC | 0.00241
GTCTGGAA | -0.111
AAGGAGCG | -0.166
AGTAGAAA | 0.108
CGATGTTA | 0.11
CAACTTAA | 0.0842
CCTGTGCG | -0.0406
CGGGGAAA | 0.0522
TGCCATAA | -0.0398
GAAGTAAC | 0.113
CACTTACC | 0.0641
GTGTGATA | 0.186
AGGTTTAT | 0.0989
TACCCTAA | -0.0491
GTGCAACA | 0.0165
AAACTGAT | 0.0819

Sequence | PBM E-score
GCTAACAA | 0.0562
GGCGTGCA | 0.0576
AAGTCTTA | -0.14
GTAACAAC | 0.095
AACCAGTA | 0.157
GTGCATGA | 0.0119
ACCATAGA | -0.129
CTCATCGC | -0.133
CGTCGATC | 0.203
CTAACAAA | 0.158
TACACACA | 0.061
GCCGTCTA | -0.0651
CATGTTGA | 0.243
GCATAGTA | -0.0191
AAGACGTG | 0.0203
AGATTGAT | -0.0358
TCTTCAAA | -0.0389
ATCCCTTA | -0.0404
CCATGCTA | -0.127
ATCTGTCG | 0.0745
AGGCACGG | 0.0172
ATAATGAG | 0.0901
